{"sequences": {"note": "The chains behind the UniProt entries cited, without tags or fusion partners.", "UniProt P40337": "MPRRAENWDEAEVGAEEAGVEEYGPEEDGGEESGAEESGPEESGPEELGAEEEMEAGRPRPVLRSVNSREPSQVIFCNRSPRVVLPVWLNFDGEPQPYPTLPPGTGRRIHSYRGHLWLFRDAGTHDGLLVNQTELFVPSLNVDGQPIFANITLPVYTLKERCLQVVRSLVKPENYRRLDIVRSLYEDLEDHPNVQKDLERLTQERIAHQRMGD", "UniProt Q16763": "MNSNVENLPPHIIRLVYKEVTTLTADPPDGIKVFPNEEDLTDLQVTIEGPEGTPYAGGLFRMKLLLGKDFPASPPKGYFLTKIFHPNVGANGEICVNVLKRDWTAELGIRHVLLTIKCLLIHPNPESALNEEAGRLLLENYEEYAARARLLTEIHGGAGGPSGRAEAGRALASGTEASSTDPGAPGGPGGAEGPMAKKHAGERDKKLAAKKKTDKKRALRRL"}, "source": "paper PMC7175249", "target": "Endogenous pVHL (human (endogenous in MHCC-LM3)) (UniProt P40337)", "assay": "co-IP; endogenous proteins, MHCC-LM3 cells with NC or OTUD6B knockdown, treated with MG132 for 8 h, immunoprecipitation with control IgG or anti-pVHL antibodies", "note": "These are yes or no findings as the source states them, for the method shown. Binding seen in cells or lysates may run through a third protein. Some entries that bind do so weakly or less than the wild type.", "data": [{"substance": "E2-EPF ubiquitin carrier protein (UCP) (from UniProt Q16763 1-222) (enzyme)", "values": [{"measurement": "binding", "result": "binds"}]}]}
